The structures given here were assigned with low confidence; some may be wrong.
Legend:
[1] = molecular target: human calcitonin receptor (CTR) (Homo sapiens, UniProt P30988); assay: Calcitonin receptor (CTR) cAMP Assay; conditions: read-out: Calcitonin Receptor cAMP Stimulation Activity: EC50; COS7-human CTR Clone #2 cells, cAMP dynamic 2 kit
Excerpt: Calcitonin receptor (CTR) cAMPAssay
The calcitonin receptor (CTR) belongs to the subfamily of GPCRs known as the secretin or ‘B’ family of GPCRs. Like other class B1 GPCRs, the CT receptor family is canonically coupled to Gs-mediated cAMP production, and measurement of cAMP accumulation has been the primary assay used to determine peptide selectivity and potency.
To optimize functional activity directed toward Gas coupling, COS-7 cells were stably transfected with human calcitonin receptor (CTR) to create COS7-human CTR Clone #2 stable cell line. 100× concentration of compound working solutions were prepared with 4-fold serial dilution in 384-well Echo LDV plate (Labcyte, Cat #LP-0200-BC). 200 nL/well 100×concentration of compound working solutions were moved to 384-well white microplate (Perkin Elmer, Cat #6007680) using Labcyte ECHO550. […]
(§1) After incubation, the cAMP assay signal was generated using cAMP dynamic 2 kit (Revvity, Cat #62AM4PEC). 10 L cAMP-d2 working solution was added to each well, followed by 10 μL Anti-cAMP antibody-cryptate working solution which was added to each well using CERTUS FLEX LIQUID DISPENSER The samples were then incubated at room temperature for 1 hour protected from light. the fluorescence was read at 665 and 615 nm with Reader PerkinElmer EnVision 2105.

Amino acid sequences for entries named in this document (tags omitted). Residues count along the entry.
UniProt P30988, 25-474 limits assumed: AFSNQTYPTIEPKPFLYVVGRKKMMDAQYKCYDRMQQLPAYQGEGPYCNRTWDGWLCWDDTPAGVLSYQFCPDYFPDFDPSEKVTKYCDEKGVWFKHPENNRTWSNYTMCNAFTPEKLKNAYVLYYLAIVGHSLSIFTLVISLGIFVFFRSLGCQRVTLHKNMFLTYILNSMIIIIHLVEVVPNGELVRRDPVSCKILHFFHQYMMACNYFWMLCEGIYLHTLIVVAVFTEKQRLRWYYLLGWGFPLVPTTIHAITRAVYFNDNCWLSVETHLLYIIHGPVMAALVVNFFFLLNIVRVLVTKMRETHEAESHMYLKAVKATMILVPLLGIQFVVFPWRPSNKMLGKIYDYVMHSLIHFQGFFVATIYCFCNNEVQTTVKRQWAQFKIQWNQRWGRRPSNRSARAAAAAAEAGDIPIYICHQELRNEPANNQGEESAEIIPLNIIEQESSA
UniProt O60896, 24-148 partner limits assumed: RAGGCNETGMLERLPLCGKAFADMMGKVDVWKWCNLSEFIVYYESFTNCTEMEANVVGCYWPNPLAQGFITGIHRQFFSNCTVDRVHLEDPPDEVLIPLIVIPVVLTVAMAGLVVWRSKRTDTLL

[2] = molecular target: human calcitonin receptor (CTR) and RAMP3 (AMY3) (Homo sapiens, UniProt O60896+P30988); assay: Amylin Receptor cAMP Assay II; conditions: read-out: Amylin Receptor cAMP Stimulation Activity: EC50, COS-7/AMY3 cells, cAMP dynamic 2 kit
Excerpt: Amylin Receptor cAMPAssay II
AMYRs are heterodimers of the class B calcitonin (CT) G-protein-coupled receptor (CTR) and receptor activity-modifying proteins (RAMPs). All three RAMPs can interact with the CTR and form AMY1, AMY2, AMY3 with RAMP1, RAMP2 and RAMP3, respectively. Like other class B1 GPCRs, the CT receptor family is canonically coupled to Gs-mediated cAMP production, and measurement of cAMP accumulation has been the primary assay used to determine peptide selectivity and potency.
To optimize functional activity directed toward Gas coupling, COS-7 cells were stably transfected with human calcitonin receptor (CTR) and RAMP3, simultaneously. 100×concentration of compound working solutions were prepared with 4-fold serial dilution in 384-well Echo LDV plate (Labcyte, Cat #LP-0200-BC). […]
as §1, with “10 μL” for “10 L”

Structure (SMILES) | EC50 [1] | EC50 [2]
Cc1nnc(-c2c(COc3ccc(F)cc3)nc3c(c2-c2ccc(C(=O)N[C@@H]4CCc5ncccc54)s2)C(=O)N2CCC[C@@H]32)o1 [Compound 32, N—[(R)-4-aza-1-indanyl]-5-{(2S)-11-[(p-fluorophenoxy)methyl]-10-(5-methyl-1,3,4-oxadiazol-2-yl)-7-oxo-6,12-diazatricyclo[6.4.0.0^2,6]dodeca-1(8),9,11-trien-9-yl}-2-thenamide] | 194 nM | –
Cc1cc(-c2c(CCC34CCC(CC3)OC4)nc3c(c2-c2ccc4c(c2)oc(=O)n4Cc2ccc(C#N)cn2)C(=O)N2CCC[C@@H]32)ccn1 | 0.75 nM | 48.7 nM

Source: patent US20250051355A1, “COMPOUNDS, COMPOSITIONS, AND METHODS” (ACONCAGUA BIO, INC., priority 2023, published 2025)
